In patent publication US20120220039A1, “METHOD AND SYSTEM FOR DETECTING RESIDUAL POISON IN HUMAN BODY” (THE HONG KONG UNIVERSITY OF SCIENCE AND TECHNOLOGY, priority 2009, published 2012):

Tests used:
[1] = Sensitivity (LOD/LOQ) of HPLC-Chip-MS/MS method, blank hair sample spiked with drug standard; parameters: species or system human
[2] = Sensitivity (LOD/LOQ) of conventional GC-MS/MS method; details: Table 1
[3] = blank hair sample spiked with standard

Row | Compound | Limit of detection (LOD) ([1]; Table 1) | Limit of quantification (LOQ) ([1]; Table 1) | Limit of detection (LOD) [1, 3] | Limit of quantification (LOQ) [1, 3] | Limit of detection (LOD) [2] | Limit of quantification (LOQ) [2]
1 | CC(=O)[C@]1(O)C=C[C@H]2[C@H]3Cc4ccc(O)c5c4[C@@]2(CCN3C)[C@H]1O5 [6-acetylmorphine] | 2 pg/mg | 2 pg/mg | 2 pg/mg | 10 pg/mg | 30 pg/mg | 500 pg/mg
2 | CN1[C@H]2CC[C@@H]1[C@@H](C(=O)O)[C@@H](OC(=O)c1ccccc1)C2 [Benzoylecgonine] | 0.1 pg/mg | 0.1 pg/mg | 0.1 pg/mg | 0.5 pg/mg | 15 pg/mg | 50 pg/mg
3 | CN[C@@H](C)Cc1ccccc1 [Methamphetamine] | 0.1 pg/mg | 0.1 pg/mg | 2.5 pg/mg | 5 pg/mg | 100 pg/mg | 500 pg/mg
4 | Ketamine | 0.1 pg/mg | 0.1 pg/mg | 0.1 pg/mg | 1 pg/mg | 200 pg/mg | 500 pg/mg
5 | Methadone | 0.1 pg/mg | 0.1 pg/mg | 0.1 pg/mg | 0.5 pg/mg | 200 pg/mg | 800 pg/mg
